For the assay, the system named is HEK293A TEAD-LUC reporter. The experiment in a line: TEAD-luciferase reporter activity (YAP activation), robust Z score vs plate; higher = stronger YAP/TEAD activation. As to conditions: 24 h. (In a reporter assay the amount or activity of a reporter protein is the signal.)

Each structure is given as a SMILES string. Where a name gives a salt, the structure may show the parent alone. The list shows a part of the results. Repeats in this data set agree poorly, so a single value says little.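 Human kidney-derived cells stably carry a construct in which eight TEAD-binding elements drive luciferase, measured by luminescence in a drug-repurposing library screen. A hit is any compound whose signal exceeds the plate mean by more than five robust Z scores.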

For `C=CC[N+]1([C@H]2C[C@H]3[C@@H]4CC[C@H]5C[C@H](O)[C@@H](N6CCOCC6)C[C@]5(C)[C@H]4CC[C@]3(C)[C@H]2OC(C)=O)CCCC1` [Rocuronium bromide], the TEAD-luciferase reporter activity is, setting by setting: (compound concentration: 200 nM) inactive: 0.174; (compound concentration: 10 uM) inactive: 4.83.

For `C=CC[N+]1([C@H]2C[C@H]3[C@@H]4CC[C@H]5C[C@H](O)[C@@H](N6CCOCC6)C[C@]5(C)[C@H]4CC[C@]3(C)[C@H]2OC(C)=O)CCCC1` [rocuronium bromide], the TEAD-luciferase reporter activity (compound concentration: 2 uM) is inactive: -1.11.

`N#C/C(=C\c1ccc(O)c(O)c1)C(=O)NCCCCc1ccccc1`: the TEAD-luciferase reporter activity reads like this: (compound concentration: 200 nM) inactive: -1.22; (compound concentration: 2 uM) inactive: -1.76; (compound concentration: 10 uM) inactive: -1.88.

For the molecule `CN1CCC(=C2c3ccccc3C=Cc3ccccc32)CC1`, the TEAD-luciferase reporter activity runs as follows: (compound concentration: 200 nM) inactive: -0.726; (compound concentration: 10 uM) inactive: 0.849.

Consider `CN1CCC(=C2c3ccccc3C=Cc3ccccc32)CC1` [Cyproheptadine hydrochloride], for which the TEAD-luciferase reporter activity (compound concentration: 2 uM) was inactive: 2.86.

For the molecule `COCCCCOC(=O)/C=C/c1ccc(-c2nc3c([nH]2)c(=O)n(CC2CCCCC2)c(=O)n3CC2CCCCC2)cc1`, the TEAD-luciferase reporter activity by setting is: (compound concentration: 200 nM) inactive: -1.67; (compound concentration: 2 uM) inactive: -0.624; (compound concentration: 10 uM) inactive: 0.0414.

On to `NS(=O)(=O)c1ccc(NC(=O)Nc2ccc(F)cc2)cc1`, for which the TEAD-luciferase reporter activity reads like this: (compound concentration: 200 nM) inactive: -1.1; (compound concentration: 2 uM) inactive: -0.34; (compound concentration: 10 uM) inactive: 0.508.

As to `O=C(N/N=C/c1ccc([N+](=O)[O-])o1)c1ccc(O)cc1`, the TEAD-luciferase reporter activity was active: 5.75 (compound concentration: 200 nM), inactive: -0.269 (compound concentration: 2 uM) and inactive: 0.421 (compound concentration: 10 uM).

`Cc1ncc([N+](=O)[O-])n1CCCN1CCOCC1`: the TEAD-luciferase reporter activity reads like this: (compound concentration: 200 nM) inactive: -1.41; (compound concentration: 2 uM) inactive: -1.17; (compound concentration: 10 uM) inactive: -0.178.

`O=c1[nH]c2cc(-c3ccncc3)c(C(F)(F)F)nc2[nH]1`: the TEAD-luciferase reporter activity is, setting by setting: (compound concentration: 200 nM) inactive: -0.28; (compound concentration: 2 uM) inactive: 0.386; (compound concentration: 10 uM) inactive: -1.69.

Turning to `COC(=O)Nc1nc2ccc(C(=O)c3ccc(F)cc3)cc2[nH]1` [Flubendazole], the TEAD-luciferase reporter activity by setting is: (compound concentration: 200 nM) inactive: -0.613; (compound concentration: 10 uM) active: 5.93.

Regarding `COC(=O)Nc1nc2ccc(C(=O)c3ccc(F)cc3)cc2[nH]1` [flubendazole], the TEAD-luciferase reporter activity (compound concentration: 2 uM) was inactive: 0.396.

Turning to `CCCCc1nc2ccc([C@@H]3C[C@H]4CCCN4O3)cc2c(=O)n1Cc1ccc(-c2ccccc2-c2nn[nH]n2)cc1`, the TEAD-luciferase reporter activity is inactive: -1.38 (compound concentration: 200 nM), inactive: -0.427 (compound concentration: 2 uM) and inactive: 2.26 (compound concentration: 10 uM).

For the molecule `CN(C)CCc1c[nH]c2ccc(C[C@H]3COC(=O)N3)cc12` [zolmitriptan], for the setting “compound concentration: 2 uM”, the TEAD-luciferase reporter activity was inactive: 0.796.

On to `CN(C)CCc1c[nH]c2ccc(C[C@H]3COC(=O)N3)cc12` [Zolmitriptan], for which the TEAD-luciferase reporter activity is, setting by setting: (compound concentration: 200 nM) inactive: 0.495; (compound concentration: 10 uM) inactive: 0.527.

On to `COc1ccc(S(=O)(=O)Nc2nc3ccccc3nc2Nc2ccc(C(C)=O)cc2)cc1`, for which the TEAD-luciferase reporter activity runs as follows: (compound concentration: 200 nM) inactive: -2.02; (compound concentration: 2 uM) inactive: -1.33; (compound concentration: 10 uM) inactive: -1.34.

On to `CCOc1ccc(CN2CCCC23Cc2ccccc2CNC3=O)cc1` (stereo not given), for which the TEAD-luciferase reporter activity runs as follows: (compound concentration: 200 nM) inactive: -1.52; (compound concentration: 10 uM) inactive: -1.78.

As for `CC(C)CCOC(=O)C(N)c1ccccc1` (stereo not given), the TEAD-luciferase reporter activity by setting is: (compound concentration: 200 nM) inactive: -0.91; (compound concentration: 2 uM) inactive: -0.568; (compound concentration: 10 uM) inactive: 2.81.

Regarding `NCCNc1ccc(NCCN)c2c1C(=O)c1ccncc1C2=O` [pixantrone], the TEAD-luciferase reporter activity is, setting by setting: (compound concentration: 200 nM) inactive: -1.07; (compound concentration: 10 uM) inactive: -0.656.

In the case of `N#CCCCSC(=N)N` [Thioureidobutyronitrile hydrochloride], the TEAD-luciferase reporter activity by setting is: (compound concentration: 200 nM) inactive: -0.365; (compound concentration: 2 uM) inactive: -2.67; (compound concentration: 10 uM) inactive: -0.361.

Turning to `Cc1nc2ccc(C(=O)N3CCC4(CC3)CC(=O)c3c(cnn3C(C)C)C4)cc2[nH]1`, the TEAD-luciferase reporter activity reads like this: (compound concentration: 200 nM) inactive: -1.42; (compound concentration: 2 uM) inactive: -0.205; (compound concentration: 10 uM) inactive: 0.347.

On to `COC(=O)C12C(O)C(C(=O)Cc3ccccn3)=NN1C(c1ccccc1)C=CC2c1ccccc1` (stereo not given), for which the TEAD-luciferase reporter activity runs as follows: (compound concentration: 200 nM) inactive: -0.103; (compound concentration: 2 uM) inactive: -0.419; (compound concentration: 10 uM) inactive: -0.192.

As to `CC(C)NCC(O)c1ccc(O)c(O)c1` (stereo not given), the TEAD-luciferase reporter activity (compound concentration: 200 nM) is inactive: -0.602, the TEAD-luciferase reporter activity (compound concentration: 2 uM) is inactive: -1.87 and the TEAD-luciferase reporter activity (compound concentration: 10 uM) was active: 7.37.

In the case of `Nc1c(-c2cccc(C(F)(F)F)c2)nsc1C(=O)O` [amflutizole], the TEAD-luciferase reporter activity is, setting by setting: (compound concentration: 200 nM) inactive: -0.0424; (compound concentration: 2 uM) inactive: 2.78; (compound concentration: 10 uM) inactive: -0.455.

In the case of `NCCS`, the TEAD-luciferase reporter activity runs as follows: (compound concentration: 200 nM) inactive: 0.134; (compound concentration: 10 uM) inactive: 1.05.

As to `NCCS` [Mercaptamine hydrochloride], where the note is “compound concentration: 2 uM”, the TEAD-luciferase reporter activity was inactive: 1.21.

As to `O=C(O)c1cccc(-c2cccc(NCCNC[C@H](O)c3cccc(Cl)c3)c2)c1` [solabegron hydrochloride], the TEAD-luciferase reporter activity runs as follows: (compound concentration: 200 nM) inactive: -0.0639; (compound concentration: 2 uM) inactive: -1.21; (compound concentration: 10 uM) inactive: 0.266.

As to `NC(CCCOc1cccc2ccccc12)N=O` (stereo not given), the TEAD-luciferase reporter activity reads like this: (compound concentration: 200 nM) inactive: -1.94; (compound concentration: 2 uM) inactive: -1.07; (compound concentration: 10 uM) inactive: 0.247.

On to `O=c1[nH]c2c(O)ccc(CCNCCNS(=O)(=O)CCOCCc3ccccc3)c2s1`, for which the TEAD-luciferase reporter activity is, setting by setting: (compound concentration: 200 nM) inactive: -2.88; (compound concentration: 2 uM) inactive: -1.46; (compound concentration: 10 uM) inactive: -1.51.

These data come from the supplement of paper PMC10735217.
